The full ranking holds about 33,000 sequences; the median of “E-score (-0.5 to 0.5)” is about -0.0034, and the highest 2% start at about 0.25. Some of the results follow.
target: T1, Yap3 (UniProt P38749); test: PBM E-score (8-mer binding enrichment) (E-score (-0.5 to 0.5)); higher = stronger / more preferred TF binding; details: protein concentration: 100 nM; construct: GST-full length
T1 sequence: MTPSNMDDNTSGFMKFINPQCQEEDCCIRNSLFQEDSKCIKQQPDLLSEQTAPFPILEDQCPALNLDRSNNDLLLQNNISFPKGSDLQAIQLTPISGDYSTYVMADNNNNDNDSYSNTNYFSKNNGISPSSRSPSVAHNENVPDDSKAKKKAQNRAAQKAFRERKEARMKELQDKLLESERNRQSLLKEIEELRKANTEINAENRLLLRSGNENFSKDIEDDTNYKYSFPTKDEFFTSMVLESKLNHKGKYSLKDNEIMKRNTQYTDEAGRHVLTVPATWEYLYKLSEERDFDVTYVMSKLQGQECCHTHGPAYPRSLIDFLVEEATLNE
Method in brief: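 Detection of bound protein used fluorescent anti-GST, with scans normalised by masliner. The proteins were GST-tagged yeast transcription factors applied at about 100-200 nM to universal all-10-mer Agilent arrays made double-stranded by primer extension. Each ungapped eight-base word, pooled with its reverse complement, was scored with an E-score from the Universal PBM Analysis Suite.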

| Sequence | PBM E-score |
| --- | --- |
| CAGGGTGA | -0.131 |
| CCCTAAGC | -0.167 |
| CGATGCTA | 0.0583 |
| CATGACAC | 0.197 |
| ACAAAAAG | 0.239 |
| CCCCTACC | -0.212 |
| CGATGCTC | -0.179 |
| TCACTGCA | 0.247 |
| TAAACGGA | 0.186 |
| AGCCACAG | -0.278 |
| GAAGTAGA | 0.0861 |
| ACAAGCAT | -0.0197 |
| ATGCTGAC | -0.13 |
| CCCGATAG | -0.101 |
| ATCTACAC | 0.0471 |
| CGGCCTAC | -0.00923 |
| ACTTTGTA | 0.0238 |
| CGTTATGC | 0.127 |
| CTTACTGA | 0.0344 |
| CAATTCCA | -0.102 |
| TTAGCGAA | 0.132 |
| CATTGAAG | -0.114 |

| Sequence | PBM E-score |
| --- | --- |
| CGGCTCGC | 0.0898 |
| CCCTACTA | -0.13 |
| GATATGTA | 0.138 |
| CAGCAAAC | 0.098 |
| CGATACGA | -0.0959 |
| AATAAGAT | 0.075 |
| TAGCGTGA | 0.0431 |
| TGGGTACA | -0.127 |
| GGGTAATA | 0.0455 |
| ATCATTTG | 0.00757 |
| ACTTTTAT | 0.0969 |
| AGCGCAAT | 0.0706 |
| CTGCTAGC | -0.26 |
| CTGAATTA | 0.199 |
| AAATTACT | 0.304 |
| AACCAGAA | 0.00114 |
| GAAAGTGA | 0.152 |
| ACTAGGAC | 0.0231 |
| AACTCTGA | 0.0176 |
| AGATCTTG | -0.0561 |
| CCGACCAC | -0.0187 |
| AAGTCCGT | -0.131 |

| Sequence | PBM E-score |
| --- | --- |
| ACGTCGAA | 0.0715 |
| GGTTTAAA | 0.0971 |
| CAGAAAGC | 0.0733 |
| ATTGTCTG | 0.11 |
| ATGGTCGG | -0.138 |
| AGTACCGC | 0.0296 |
| GTGCACAA | 0.00296 |
| AGGCATAA | -0.0192 |
| CTGCACTA | 0.262 |
| CAATATAG | 0.218 |
| ATAACGAA | 0.235 |
| ACAGTGGG | -0.178 |
| AAAGTATA | 0.235 |
| CCGTACGG | -0.0965 |
| CTTGTTCA | 0.0982 |
| AATAATTG | 0.203 |
| CAAGCACA | -0.0433 |
| ACCTCCGC | -0.128 |
| CAGACCAA | 0.0291 |
| CAAGGTTA | 0.00471 |
| AGCGACCG | -0.0678 |
| CAACAGGG | -0.116 |

| Sequence | PBM E-score |
| --- | --- |
| AACGGCGG | -0.208 |
| AACACACA | 0.163 |
| TGCGCAAA | 0.0388 |
| GAGATCAC | 0.125 |
| AAAGTAAT | 0.216 |
| AGAAGTAC | -0.0902 |
| GAATTAGC | 0.0202 |
| TCACAGCA | 0.00818 |
| TGCCAGCA | -0.0788 |
| GTCGTGAA | -0.174 |
| GCGGTACC | -0.105 |
| AACGGCCC | -0.264 |
| CCGTGGTA | -0.165 |
| CCAGAAAA | 0.189 |
| CTAATGAC | 0.126 |
| CATCATAA | 0.196 |
| CCTTTAGA | -0.149 |
| CAACAACG | 0.133 |
| CCGATAGA | -0.0967 |
| ATCGTGAA | 0.0514 |
| ACGGTATC | 0.103 |
| CAGTAAAA | 0.161 |

| Sequence | PBM E-score |
| --- | --- |
| ATGCGTCG | -0.0312 |
| TAAGAATA | -0.0571 |
| GACGGCTA | -0.0139 |
| AGGGACAT | 0.0801 |
| AATGATAT | 0.242 |
| GTGCCTAA | -0.196 |
| AGAATAAA | 0.261 |
| ACAGAGTG | -0.0958 |
| CTTCTTCA | -0.0341 |
| GGTCGACC | 0.0928 |
| CGCAATGA | 0.0722 |
| ATCAGTAA | 0.159 |
| GCAATAGC | 0.0725 |
| GCAAAATA | 0.182 |
| CATGCCCG | 0.0256 |
| AACTATCT | 0.1 |
| CTATTCGC | 0.0835 |
| GTAATCAA | 0.226 |
| CTCGTCGA | -0.0244 |
| GCCTCCCC | -0.0722 |
| AACTGAAT | -0.124 |

Random excerpt: 4 entries already listed, in no set order.

| Sequence | PBM E-score |
| --- | --- |
| CATGCCCG | 0.0256 |
| GTGCCTAA | -0.196 |
| GACGGCTA | -0.0139 |
| ATGCGTCG | -0.0312 |

Reference: the supplement of paper PMC3334620
